# The other results are listed elsewhere or left out. Rule as the data show it: active = 150% or more and inactive = the rest. Repeats are few or missing, and single values can be far off.
# Tested on: Staphylococcus aureus JE2-lux inside RAW 264.7 macrophages
# Experiment: intracellular bacterial bioluminescence relative to DMSO vehicle; higher = higher intracellular bacterial metabolic activity
# Settings: 10 µM; treatment time 4 h; gentamicin 50 µg/ml
row,Compound,intracellular bacterial bioluminescence
1,COc1ccc(-c2cc(C(=O)Nc3cc(C)n(C)n3)ccc2-n2ccnc2)cc1,inactive: 108%
2,COCCCn1c(=N)c(C(=O)NC(C)c2ccccc2)cc2c(=O)n3cccc(C)c3nc21 (stereo unspecified),inactive: 134%
3,COc1ccc2oc(=O)c(C(=O)NC3=C(C#N)CCC3)cc2c1,inactive: 128%
4,Oc1nc(SCc2cc3c(cc2Cl)OCO3)nc2[nH]cnc12,inactive: 113%
5,CCS(=O)(=O)c1ccccc1C(=O)N1CCN(c2nc3ccc([N+](=O)[O-])cc3s2)CC1,inactive: 81.7%
6,CCc1ccc(NC(=O)c2cnn3c(=O)cc(C)[nH]c23)cc1,inactive: 89.8%
7,CC(=O)Nc1ccc2nc(Nc3nc4ccc(C(C)C)cc4s3)sc2c1,inactive: 58.9%
8,O=C(CSc1ncnc2ccccc12)Nc1cccc(C(F)(F)F)c1,inactive: 1.91%
9,CCOC(=O)c1c(NC(=O)C(C)Sc2nc(=O)n3cc(C)ccc3n2)sc2c1CCCCC2 (stereo unspecified),inactive: 64.2%
10,C=CCN1C(=O)c2oc3ccccc3c(=O)c2C1c1ccc(O)c(OC)c1 (stereo unspecified),inactive: 121%
11,COCCCNC(=O)Cn1c(C)cc(=O)n2nc(-c3ccccc3Cl)nc12,inactive: 111%
12,O=C(Nc1ccccc1F)C(=O)c1c[nH]c2ccccc12,inactive: 124%
13,O=C(Nc1ccon1)C1CCN(S(=O)(=O)c2cccs2)CC1,inactive: 84.4%
14,O=C(Nc1ccc2c(c1)CCC2)C1CCN(C(=O)NC2CCCCC2)CC1,inactive: 98.5%
15,NS(=O)(=O)c1ccc(CNC(=O)c2cccn3c(-c4ccc(F)cc4)nnc23)cc1,inactive: 87.7%
16,CCCc1cc(C(=O)N2CCCC2c2ccc(C)cc2)no1 (stereo unspecified),inactive: 88.3%
17,c1ccc2c(c1)c(N1CCN(Cc3ccc4c(c3)OCO4)CC1)nn1nnnc21,inactive: 96%
18,COC(=O)c1ccc2nc(NC(=O)c3ccc(Br)s3)sc2c1,inactive: 117%
19,Cn1ncc2c1CCc1sc(NC(=O)CC3CCS(=O)(=O)C3)nc1-2 (stereo unspecified),inactive: 103%
20,Cc1ccc(NC(=S)NC2CC3CCC(C2)N3Cc2ccccc2)cc1C (stereo unspecified),inactive: 102%
21,c1csc(CCNc2nn3cnnc3c3ccccc23)c1,inactive: 110%
22,NC(=O)Cn1cnc2c(sc3ncccc32)c1=O,inactive: 105%
23,CCOc1ccc2[nH]c(C(=O)NC(c3ccccc3)c3cccnc3)c(C)c2c1 (stereo unspecified),inactive: 85.8%

# Part of the list above in another layout.
row | Compound | intracellular bacterial bioluminescence
4 | Oc1nc(SCc2cc3c(cc2Cl)OCO3)nc2[nH]cnc12 | inactive: 113%
9 | CCOC(=O)c1c(NC(=O)C(C)Sc2nc(=O)n3cc(C)ccc3n2)sc2c1CCCCC2 (stereo unspecified) | inactive: 64.2%
20 | Cc1ccc(NC(=S)NC2CC3CCC(C2)N3Cc2ccccc2)cc1C (stereo unspecified) | inactive: 102%
22 | NC(=O)Cn1cnc2c(sc3ncccc32)c1=O | inactive: 105%

# Following part.

row,Compound,intracellular bacterial bioluminescence
1,Cc1cccn2c(=O)nc(SCC(=O)Nc3ccccc3F)nc12,inactive: 73.3%
2,Cc1nn2c(=O)/c(=C\c3cccnc3)sc2nc1=O,inactive: 84.3%
3,O=C(CCN1C(=O)c2ccccc2S1(=O)=O)Nc1ccc(F)c([N+](=O)[O-])c1,inactive: 5.15%
4,Cc1ccc(C(=O)CSc2nnc3cc(C)c4ccccc4n23)s1,inactive: 80.8%
5,COc1ccc(OC)c(NC(=O)Cn2c(=O)n(C(C)C)c3ncccc32)c1,inactive: 108%
6,O=C(CCC1CCCC1)N1CCN(c2ncnc3c2nnn3-c2ccc(F)cc2)CC1,inactive: 86.5%
7,COc1cc(/C=N/NC(=O)CNC(=O)c2cccc3ccccc23)cc(OC)c1OC,inactive: 81.4%
8,COc1cc(OC)cc(C(=O)N2CCN(c3nc4ccccc4cc3-c3noc(C)n3)CC2)c1,inactive: 79.4%
9,Cc1nc(-n2nc(C)c(CC(=O)N3CCCCC3)c2O)sc1C,inactive: 91.2%
10,COc1cccc2cc(C(N)=O)/c(=N\c3ccc(O)cc3)oc12,active: 154%
11,Cc1c(Cl)cccc1N1CCCn2c1nc1c2c(=O)n(CC(=O)O)c(=O)n1C,inactive: 88.7%
12,COc1ccc([N+](=O)[O-])cc1NC(=O)CSc1ccc(C)cc1,inactive: 65.9%
13,COc1ccc2[nH]c3nc(SCC(=O)Nc4ccccc4Cl)nnc3c2c1,inactive: 120%
14,CSc1ccc(NC(=O)NCCNc2nc3cc(C)c(C)cc3cc2C#N)cc1,inactive: 127%
15,CCn1ncc(C2=NOC(C(=O)NCc3cccnc3)C2)c1C (stereo unspecified),inactive: 107%
16,Cc1ncc(C(=O)NC(c2ccccc2)c2ccnn2C)c(C)n1 (stereo unspecified),inactive: 121%
17,O=C(CSc1c[nH]c2ccccc12)NCc1ccccc1,inactive: 59.8%
18,Cc1ccc(NC(=O)CSc2c[nH]c3ccccc23)c(C)c1,inactive: 101%
19,COc1cc(Cl)c(C)cc1NC(=O)CSc1nc2c(-c3ccccc3)csc2c(=O)n1C,inactive: 109%
20,Cc1nc2ccccc2cc1C(=O)NCc1ccccn1,inactive: 77.9%
21,O=C(NCc1cccnc1)C(=O)c1cn(CC(=O)N2CCCCC2)c2ccccc12,inactive: 130%
22,CCS(=O)(=O)c1ccc(C(=O)Nc2nc3ccc(Br)cc3s2)cc1,inactive: 106%
23,CNc1nc2c(c(=O)n(C)c(=O)n2C)n1CCSc1nc2ccccc2s1,inactive: 93.3%

row,Compound,intracellular bacterial bioluminescence
1,COc1c(Sc2ccc([N+](=O)[O-])cc2)c(C)nn1-c1ccccc1,inactive: 82.9%
2,COc1ccc(-c2ocnc2C(=O)NCCc2cccc(F)c2)cc1OC,inactive: 55%
3,O=C(Cn1c(CN2CCCCC2)nc2ccccc21)N1CCOCC1,inactive: 120%
4,CC(=O)Nc1ccc(Nc2c3c(c(C#N)c4nc5ccccc5n24)CCCC3)cc1,inactive: 73.8%
5,CCOC(=O)c1c(SCC(=O)Nc2cc(C(F)(F)F)cc(C(F)(F)F)c2)nc(=O)[nH]c1C,inactive: 98.7%
6,CCS(=O)(=O)c1cccc(C(=O)Nc2nc3c(F)cc(F)cc3s2)c1,inactive: 102%
7,O=C(COc1cccc2c1CCN(Cc1ccccc1)C2=O)N1CCCC1,inactive: 79.4%
8,Cc1csc(N2C(=N)SC(c3ccccc3)C2=O)n1 (stereo unspecified),inactive: 103%
9,c1ccc(-c2csc3ncnc(Sc4ccc5c(c4)OCCO5)c23)cc1,inactive: 126%
10,O=C(CCC(=O)NC1CCCCC1)Nc1noc2ccccc12,inactive: 93.5%
11,O=C(Oc1c(CN2CCOCC2)cc(Cl)c2cccnc12)c1ccco1,inactive: 83.8%
12,CC(C)Cn1c(=O)c2sccc2n2c(CCCC(=O)NCc3ccc4c(c3)OCO4)nnc12,inactive: 75.5%
13,CC(C)[C@H](Cn1nc(-c2ccc(F)c(F)c2)ccc1=O)NC(=O)c1ccc(=O)[nH]n1,inactive: 108%
14,O=[N+]([O-])c1ccc2[nH]c(SCc3cn4cccnc4n3)nc2c1,inactive: 33.2%
15,CCOC(=O)c1oc2ccccc2c1NC(=O)c1cc2ccccc2oc1=O,inactive: 92%
16,COC(=O)c1ccc(NC(=O)C(C)N2C(=O)c3ccccc3S2(=O)=O)cc1 (stereo unspecified),inactive: 73.5%
17,Cc1cc(C)nc(SCc2cc(=O)c(OC(=O)COc3ccccc3C)co2)n1,inactive: 98.6%
18,Cc1cccn2c(=O)c3cc(C(=O)NCc4cccnc4)c(=N)n(Cc4cccnc4)c3nc12,inactive: 107%
19,CCCCN(C)S(=O)(=O)c1ccc(C(=O)Nc2nc3c(s2)CSc2ccccc2-3)cc1,inactive: 99%
20,COC(=O)c1ccc(CSc2nc(=O)n3ccc(C)cc3n2)o1,inactive: 79.1%
21,N#CC1=C(SCC(=O)Nc2ccccc2)NC(=O)CC1c1cccc([N+](=O)[O-])c1 (stereo unspecified),inactive: 90.6%
22,O=C(O)C1=CC(c2c[nH]nc2-c2ccc(F)cc2)n2ncnc2N1 (stereo unspecified),inactive: 103%
23,CCOc1cc(NC(=O)c2cccc(Cl)c2)c(OCC)cc1NC(=O)c1ccc(Cl)cc1,inactive: 109%

row,Compound,intracellular bacterial bioluminescence
1,CC(=O)c1ccc(-c2ccc(/C=C(\C#N)S(=O)(=O)c3ccccc3)o2)cc1,inactive: 90.5%
2,Cc1cccc(S(=O)(=O)N(C)Cc2nc3cc(C(=O)N4CCCC4)ccc3n2C)c1,inactive: 118%
3,O=C(CC1Sc2ccccc2NC1=O)Nc1ccc(Cl)cc1[N+](=O)[O-] (stereo unspecified),inactive: 101%
4,CCC(=O)Oc1cccc(N2C(=O)c3ccc(C(=O)O)cc3C2=O)c1,inactive: 104%
5,c1ccc(CNc2nc(-c3ccccc3)no2)cc1,inactive: 18.4%
6,CC(C)c1ccc(NC(=O)CSc2nncc(=O)[nH]2)cc1,inactive: 123%
7,O=C(CSc1nc2sc3c(c2c(=O)[nH]1)CCCC3)Nc1nccs1,inactive: 110%
8,CCC(Cn1nc2c(C)cc3ccccc3n2c1=O)NC(=O)c1ccco1 (stereo unspecified),inactive: 99.2%
9,Cc1nnc(NC(=O)CSc2c(CC(C)C)cnc3c2c(=O)n(C)c(=O)n3C)s1,inactive: 107%
10,O=C(NCc1nnnn1-c1ccc(F)cc1)C1CC(=O)N(c2ccc(F)cc2)C1 (stereo unspecified),inactive: 83.6%
11,O=C(CCC(=O)N1CC(c2ccccc2)Oc2cccnc21)NCc1ccc(Cl)cc1 (stereo unspecified),inactive: 58.5%
12,O=C(NCC1COC2(CCCCC2)O1)c1ccccc1F (stereo unspecified),inactive: 109%
13,COc1cc(/C=C/C(=O)C2=C(O)c3ccccc3C2=O)ccc1O,inactive: 93.8%
14,COc1cccc(C(=O)Oc2coc(CSc3ncccn3)cc2=O)c1,inactive: 109%
15,COC(=O)C1=C(C)Nc2nc(SCc3ccc([N+](=O)[O-])cc3)[nH]c(=O)c2C1c1cccnc1 (stereo unspecified),inactive: 100%
16,CCNc1ncnc2c1c(-c1ccccc1)cn2-c1ccccc1,inactive: 54.1%
17,Cc1nc2ccccc2c(=O)n1-c1cccc(NS(=O)(=O)c2ccc(F)c(C(F)(F)F)c2)c1,inactive: 125%
18,COc1ccc(NC(=O)c2ccc(SCCN3CCCCC3)nc2)cc1OC,inactive: 87%
19,Cc1ccc(NC(=O)C(=O)NCc2ccc3c(c2)OCO3)cc1F,inactive: 102%
20,CCCSc1nnc(NC(=O)c2cc(-c3ccc4c(c3)CC(C)O4)on2)s1 (stereo unspecified),inactive: 99%
21,COc1ccc(C2=C(C)C(N3CCC(C(=O)N4CCc5ccccc5C4)CC3)=NS2(=O)=O)cc1,inactive: 109%
22,Cc1ccc(-c2cc3nc(C)cc(N4CCC(C(=O)Nc5ccc(F)c(F)c5)CC4)n3n2)cc1,inactive: 98%
